Source: PubChem BioAssay AID590 (National Center for Advancing Translational Sciences (NCATS), 2007)
Out of some 59,000 compounds screened, about 6,500 (11%) were called active. The inconclusive results got no clear call from the source; some entries with a clear call stand among them for comparison. No stated cut-off is given here; in the data, active means max dye-equivalent concentration above about 10 nM; inconclusive means mostly about 1.1 nM to 9.6 nM; inactive means weaker than that.

Experiment: qHTS Assay for Spectroscopic Profiling in A350 Spectral Region
Conditions: Compound autofluorescence, 340/450 nm, Alexa 350 dye-equivalents; active compounds read high
Description: NIH Molecular Libraries Screening Centers Network [MLSCN]
NIH Chemical Genomics Center [NCGC]
Occasionally, the artifactual effect may originate from the compounds own spectral or other biophysical properties which generally tend to track its assay concentration. Pre-screening/profiling the library with respect to the compounds spectral properties should help one exclude false positives early on. While the most informative fluorescent profiling data set is obtained by performing a full excitation and emission scan of each well by using a monochromator-based plate reader, such an approach is practical only on a very limited scale as scanning each well requires long time. An alternative approach, applied here, is to perform plate reader scans using selected excitation and emission wavelength pairs to generate a multidimensional relational database that correlates compound concentration and the respective relative fluorescence intensity at a given wavelength set. A standard curve of Alexa 350 (A 350) present on each plate as six-point concentration series, was used to compute a normalized fluorescence response, termed dye-equivalent concentration, for each compound at each concentration.
NCGC Assay Protocol Summary:
100 mM Tris buffer, pH 8.0
The wells in columns 1 through 4 of a Kalypsys polypropylene 1536-well compound plate were filled with standard solutions of fluorophore corresponding to the spectral region of interest. Solutions of A 350 were placed in the following wells: I1, J1: 3 mM, I2, J2: 300 uM, I3, J3: 30 uM, I4, J4: zero (DMSO), K1, L1: 3 uM, K2, L2: […], K3, L3: 300 nM, K4, L4: zero (DMSO).
Six uL of buffer were dispensed to 1536-well Greiner black plates. Compounds and dye standards (23 nL) were transferred via Kalypsys PinTool. The plates were incubated for 15 min at room temperature, and then read on ViewLux (Perkin-Elmer) High-throughput CCD imager using 340 nm and 450 nm excitation and emission filter set.
Keywords: NIH Roadmap, MLSCN, MLI, MLSMR, qHTS, NCGC, A350, A-350, Fluorescent Profiling.

| SMILES | max dye-equivalent concentration |
| --- | --- |
| CCOc1ccc(C2C=C(c3ccc(C)cc3)Nc3ncnn32)cc1 (configuration not stated) | active: 110 nM |
| O=C(NC1CCCC1)C(NS(=O)(=O)c1cccc2nsnc12)c1ccccc1 (configuration not stated) | inconclusive: 1.4 nM |
| COc1cc2nc(C3CC3)n(NC(=O)c3ccc(Cl)cc3)c(=O)c2cc1OC | inconclusive: 3.2 nM |
| CCOC(=O)N1CCC(NC(=O)c2sc3nc4n(c(=O)c3c2C)CCCC4)CC1 | inconclusive: 9.3 nM |
| COC(=O)c1cc2ccsc2n1Cc1cc(=O)n2ccccc2n1 | inconclusive: 1.6 nM |
| CCOc1cc(C(=O)N(C)Cc2cc3cc(OC)ccc3[nH]c2=O)cc(OCC)c1OCC | active: 190 nM |
| Cc1ccc2[nH]c(=O)c(CN(Cc3cccnc3)Cc3nnnn3CCN3CCOCC3)cc2c1 | active: 15 nM |
| COCCn1c(=O)c(-c2cccc(C#N)c2)nc2cnc(N3CCNCC3)nc21 | active: 540 nM |
| CC(C)Sc1nc(N2CCCC2)c2c(c1C#N)CC(C)(C)OC2 | inconclusive: 6.4 nM |
| CC(=O)C1=C(O)C(=O)N(c2cc(C(C)(C)C)on2)C1c1ccc(C(C)C)cc1 (configuration not stated) | active: 12 nM |
| Cc1ccc2cc3c(NC(=O)c4ccco4)nn(C)c3nc2c1 | active: 50 nM |
| Cc1cc(C(=O)OCC(=O)N2c3ccccc3CC2C)c(C)o1 (configuration not stated) | inconclusive: 7.2 nM |
| CCCC(=O)Nc1ccc(NC(=O)c2ccccc2Cl)nc1 | inconclusive: 1.3 nM |
| NC(=O)OC[C@H](O)COc1ccc(Cl)cc1 | inconclusive: 4.8 nM |
| COC(=O)CSc1cc(SCC(=O)OC)c(C#N)c(SCC(=O)OC)c1 | inconclusive: 2.1 nM |
| CC(=O)C(Sc1nc(N2CCOCC2)nc(N2CCOCC2)n1)C(=O)Nc1ccccc1 (configuration not stated) | active: 46 nM |
| Cc1cc(C)c2c3c(sc2n1)C1(CCSCC1)C(C#N)=C(N)O3 | inconclusive: 7.5 nM |
| Cc1cc(N2C3CCC2CC(O)(c2ccc(F)cc2)C3)nc(-c2ccccc2)n1 (configuration not stated) | inactive |
| CCc1c(O)nc(SCC(=O)NCc2ccco2)[nH]c1=O | inconclusive: 1.2 nM |

Another view of three compounds above:
Cc1ccc2cc3c(NC(=O)c4ccco4)nn(C)c3nc2c1
  max dye-equivalent concentration: active: 50 nM
Cc1cc(C(=O)OCC(=O)N2c3ccccc3CC2C)c(C)o1 (configuration not stated)
  max dye-equivalent concentration: inconclusive: 7.2 nM
CCCC(=O)Nc1ccc(NC(=O)c2ccccc2Cl)nc1
  max dye-equivalent concentration: inconclusive: 1.3 nM

Following part.

| SMILES | max dye-equivalent concentration |
| --- | --- |
| COc1cccc2c(=O)c(SC(F)(F)C(F)C(F)(F)F)c(C)[nH]c12 (configuration not stated) | inactive |
| CN(C)CCN(Cc1cccs1)c1ccccn1 | inconclusive: 1.7 nM |
| Oc1ccc(N2CCN(c3ncnc4sc5c(c34)CCC5)CC2)cc1 | inactive |
| CC(=O)O[C@H]1C[C@H]2CC[C@@H]3[C@@H](CC[C@]4(C)[C@H](OC(C)=O)[C@H]([N+]5(C)CCCCC5)C[C@@H]34)[C@]2(C)C[C@H]1[N+]1(C)CCCCC1 | active: 29 nM |
| O=c1c2oc3ccccc3c2ncn1Cc1ccccc1Cl | inconclusive: 2.2 nM |
| COc1ccc(OC)c(-c2nnc(SCC(=O)N3CCCc4ccccc43)o2)c1 | inconclusive: 2.3 nM |
| COc1cccc(Nc2ncccc2C(=O)NCc2ccccc2)c1 | inconclusive: 1.7 nM |
| CCC(C)n1cnc2c(c1=O)c1nc3ccccc3nc1n2Cc1ccccc1OC (configuration not stated) | active: 150 nM |
| COc1cc(OC)cc(-c2nnc(Nc3nc4c(F)cccc4s3)o2)c1 | active: 72 nM |
| COc1ccc(-c2cc(C(F)(F)F)nc(N3CCCCC3)n2)cc1OC | active: 42 nM |
| COc1ccc(Oc2ncc3ncc(=O)n(C)c3n2)cc1 | inactive |
| O=C(CCn1c(=S)[nH]c2ccccc2c1=O)NCC1CCCO1 (configuration not stated) | inconclusive: 1.9 nM |
| COCCN1CN=C(Nc2nc(C)c3ccc(C)cc3n2)NC1 | inconclusive: 8 nM |
| Cc1csc(NC(=O)Nc2ccc(Cl)cc2)n1 | inactive |
| Cc1cc(C(=O)Nc2c(F)cc(F)cc2Br)no1 | inconclusive: 1.2 nM |
| COc1cccc2cc(C(=O)N3CCN(c4ncccn4)CC3)c(=O)oc12 | inconclusive: 1.1 nM |
| COc1ccccc1NC(=O)c1cc2ccc(O)cc2o/c1=N\O | active: 200 nM |
| COc1ccc(OC)c(S(=O)(=O)Nc2ccc(O)c3ccccc23)c1 | inactive |
| Cn1cccc1C(=O)N1CCC2(CCCN(c3ccncc3)C2)CC1 | inconclusive: 3.7 nM |

| SMILES | max dye-equivalent concentration |
| --- | --- |
| CC(=O)Nc1ccc(C(=O)n2nc(C)cc2C)cc1 | inconclusive: 1.7 nM |
| N=C1Sc2ccccc2C2=NCCCN12 | inactive |
| c1ccc(-c2noc(-c3cccc4ccccc34)n2)nc1 | inconclusive: 2.4 nM |
| Cc1ccc(-n2c(=O)c(C#N)cc3c(=O)n4ccccc4nc32)cc1 | active: 6700 nM |
| O=C1C2C3C=CC(C2C(=O)N1CN1CCOCC1)C1C2C(=O)N(CN4CCOCC4)C(=O)C2C31 (configuration not stated) | inactive |
| C=CCSC1=C(C#N)C(c2cc(Br)c(O)c(OC)c2)CC(=O)N1 (configuration not stated) | inactive |
| CCc1ccccc1N1CC(C(=O)O)CC1=O (configuration not stated) | active: 18 nM |
| Cn1c(N)c(C#N)c2c(c1=S)CSC(C)(C)C2 | inconclusive: 9.7 nM |
| CCOc1cc2oc(=O)c3c(c2cc1Cl)CCC3 | active: 20 nM |
| CCN(CC)CCCN(Cc1cc2cc(OC)ccc2[nH]c1=O)C(=O)Nc1ccccc1 | active: 250 nM |
| CCOC(=O)N1CCN(C(=O)c2cn(CCOC)c(=O)c3c2c2ccccc2n3C)CC1 | active: 620 nM |
| CCC(C)(C)n1nnnc1C(c1cc2cc(OC)c(OC)cc2[nH]c1=O)N1CCc2ccccc21 (configuration not stated) | inconclusive: 1.7 nM |
| Cc1nnc(NC(=O)Cc2cccs2)s1 | inconclusive: 1.7 nM |
| CC(=O)c1ccc(N2CCN(C(=O)C3CCN(S(=O)(=O)Cc4ccccc4)CC3)CC2)cc1 | inconclusive: 1.7 nM |
| COc1cccc(N2CCN(Cc3nc(N)nc(Nc4ccccc4)n3)CC2)c1 | active: 5300 nM |
| CC(CS(=O)(=O)c1cccc2cccnc12)N1CCCCC1 (configuration not stated) | inconclusive: 1.1 nM |
| C/C(=N\O)C1(C)N(O)C(C)(C)C(c2ccc(Br)cc2)=[N+]1[O-] (configuration not stated) | inconclusive: 8.1 nM |
| C[C@H](NC(=O)OC(C)(C)C)c1nnc(SCC(N)=O)o1 | inactive |
| O=C(Cn1cnc2sc(-c3ccccc3)cc2c1=O)NCc1ccco1 | inconclusive: 1.4 nM |
